In the supplement of paper PMC10849652:
This is one part of the list.

Sequences of proteins named here, by UniProt entry; tags and fusion partners are left off. A change or cut given only in a name is not applied to a line headed by its entry.
UniProt P10301: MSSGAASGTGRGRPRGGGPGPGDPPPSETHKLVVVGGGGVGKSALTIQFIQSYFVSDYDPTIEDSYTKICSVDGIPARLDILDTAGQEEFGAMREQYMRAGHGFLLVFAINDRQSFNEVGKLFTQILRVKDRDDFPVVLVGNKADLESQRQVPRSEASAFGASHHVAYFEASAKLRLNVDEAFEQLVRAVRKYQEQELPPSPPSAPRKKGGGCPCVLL
UniProt O60942: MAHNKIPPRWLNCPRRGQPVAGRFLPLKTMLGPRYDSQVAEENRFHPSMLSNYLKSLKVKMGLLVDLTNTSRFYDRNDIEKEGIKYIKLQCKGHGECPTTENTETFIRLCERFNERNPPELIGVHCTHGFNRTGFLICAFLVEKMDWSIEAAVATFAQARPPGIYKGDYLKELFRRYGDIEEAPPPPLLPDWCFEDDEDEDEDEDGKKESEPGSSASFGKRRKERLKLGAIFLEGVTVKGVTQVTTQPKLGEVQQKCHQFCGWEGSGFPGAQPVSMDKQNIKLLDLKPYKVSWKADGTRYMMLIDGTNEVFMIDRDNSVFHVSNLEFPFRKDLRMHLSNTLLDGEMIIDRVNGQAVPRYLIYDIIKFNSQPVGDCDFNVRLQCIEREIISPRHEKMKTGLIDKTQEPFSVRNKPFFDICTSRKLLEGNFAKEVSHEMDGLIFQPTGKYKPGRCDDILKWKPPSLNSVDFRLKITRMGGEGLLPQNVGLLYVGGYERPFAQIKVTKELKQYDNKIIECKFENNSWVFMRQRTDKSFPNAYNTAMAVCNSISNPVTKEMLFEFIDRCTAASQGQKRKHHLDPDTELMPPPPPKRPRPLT
UniProt Q9H6T3, whole entry, looked up: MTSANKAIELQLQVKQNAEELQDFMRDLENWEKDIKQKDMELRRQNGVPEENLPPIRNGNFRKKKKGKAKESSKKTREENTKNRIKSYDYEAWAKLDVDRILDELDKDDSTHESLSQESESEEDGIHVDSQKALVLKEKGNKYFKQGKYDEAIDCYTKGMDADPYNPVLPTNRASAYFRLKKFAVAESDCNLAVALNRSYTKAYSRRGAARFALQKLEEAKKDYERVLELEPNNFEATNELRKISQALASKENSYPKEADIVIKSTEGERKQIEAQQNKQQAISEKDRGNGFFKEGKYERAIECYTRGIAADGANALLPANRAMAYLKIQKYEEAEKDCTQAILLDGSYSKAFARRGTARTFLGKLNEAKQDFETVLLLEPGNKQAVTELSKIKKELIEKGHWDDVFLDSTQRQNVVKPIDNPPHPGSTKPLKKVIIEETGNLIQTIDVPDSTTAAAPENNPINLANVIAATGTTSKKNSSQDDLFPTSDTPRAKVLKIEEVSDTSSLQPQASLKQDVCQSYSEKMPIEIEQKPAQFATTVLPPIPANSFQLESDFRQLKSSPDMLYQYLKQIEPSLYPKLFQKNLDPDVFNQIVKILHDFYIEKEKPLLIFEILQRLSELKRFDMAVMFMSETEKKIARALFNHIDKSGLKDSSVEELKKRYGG
UniProt Q92901: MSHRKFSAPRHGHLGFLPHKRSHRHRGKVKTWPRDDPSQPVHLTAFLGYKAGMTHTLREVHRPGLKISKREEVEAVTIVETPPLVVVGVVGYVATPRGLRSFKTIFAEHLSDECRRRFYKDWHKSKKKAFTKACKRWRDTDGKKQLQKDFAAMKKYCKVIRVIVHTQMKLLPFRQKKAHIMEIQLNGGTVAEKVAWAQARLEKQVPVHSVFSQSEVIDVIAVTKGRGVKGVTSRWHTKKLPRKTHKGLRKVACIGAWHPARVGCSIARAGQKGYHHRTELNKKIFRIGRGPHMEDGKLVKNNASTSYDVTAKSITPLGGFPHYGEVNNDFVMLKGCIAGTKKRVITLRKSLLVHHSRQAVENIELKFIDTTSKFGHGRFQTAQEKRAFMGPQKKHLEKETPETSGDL
UniProt P04843: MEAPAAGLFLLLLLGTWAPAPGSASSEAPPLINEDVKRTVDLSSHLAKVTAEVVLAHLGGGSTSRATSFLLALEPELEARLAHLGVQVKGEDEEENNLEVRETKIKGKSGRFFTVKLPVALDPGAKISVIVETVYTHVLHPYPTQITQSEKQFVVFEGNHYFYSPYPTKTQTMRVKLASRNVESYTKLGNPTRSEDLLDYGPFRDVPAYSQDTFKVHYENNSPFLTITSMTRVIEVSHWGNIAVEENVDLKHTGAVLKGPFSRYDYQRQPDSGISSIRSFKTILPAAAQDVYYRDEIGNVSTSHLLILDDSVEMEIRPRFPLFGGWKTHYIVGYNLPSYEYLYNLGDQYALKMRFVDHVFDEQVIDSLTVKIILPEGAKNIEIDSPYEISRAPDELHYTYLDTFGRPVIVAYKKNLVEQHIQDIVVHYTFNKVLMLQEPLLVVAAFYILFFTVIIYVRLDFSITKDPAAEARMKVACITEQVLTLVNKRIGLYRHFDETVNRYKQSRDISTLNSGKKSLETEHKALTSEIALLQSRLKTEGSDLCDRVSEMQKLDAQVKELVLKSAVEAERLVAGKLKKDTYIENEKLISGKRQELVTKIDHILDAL
UniProt P78346: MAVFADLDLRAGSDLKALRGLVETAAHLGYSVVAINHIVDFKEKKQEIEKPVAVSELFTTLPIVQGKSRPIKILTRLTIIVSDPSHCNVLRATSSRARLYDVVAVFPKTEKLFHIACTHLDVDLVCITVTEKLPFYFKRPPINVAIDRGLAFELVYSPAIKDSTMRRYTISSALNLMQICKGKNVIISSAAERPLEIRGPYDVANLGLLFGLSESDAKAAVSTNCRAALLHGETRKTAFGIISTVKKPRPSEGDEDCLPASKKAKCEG
UniProt P10155: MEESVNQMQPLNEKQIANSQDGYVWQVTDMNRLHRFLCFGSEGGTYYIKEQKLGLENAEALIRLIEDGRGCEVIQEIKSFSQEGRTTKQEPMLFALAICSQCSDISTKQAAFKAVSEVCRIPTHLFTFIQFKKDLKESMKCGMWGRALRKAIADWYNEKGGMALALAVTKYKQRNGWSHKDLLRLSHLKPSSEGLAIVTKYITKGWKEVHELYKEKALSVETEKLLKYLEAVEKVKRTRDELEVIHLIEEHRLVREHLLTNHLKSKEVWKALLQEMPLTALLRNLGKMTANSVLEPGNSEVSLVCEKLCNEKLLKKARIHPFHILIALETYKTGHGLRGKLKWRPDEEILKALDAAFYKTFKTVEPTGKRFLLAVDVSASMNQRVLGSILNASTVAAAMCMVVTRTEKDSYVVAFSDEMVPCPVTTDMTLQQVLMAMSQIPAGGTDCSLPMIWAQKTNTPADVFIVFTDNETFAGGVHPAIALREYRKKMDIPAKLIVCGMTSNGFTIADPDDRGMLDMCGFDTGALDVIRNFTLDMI
UniProt Q7LG56, whole entry, looked up: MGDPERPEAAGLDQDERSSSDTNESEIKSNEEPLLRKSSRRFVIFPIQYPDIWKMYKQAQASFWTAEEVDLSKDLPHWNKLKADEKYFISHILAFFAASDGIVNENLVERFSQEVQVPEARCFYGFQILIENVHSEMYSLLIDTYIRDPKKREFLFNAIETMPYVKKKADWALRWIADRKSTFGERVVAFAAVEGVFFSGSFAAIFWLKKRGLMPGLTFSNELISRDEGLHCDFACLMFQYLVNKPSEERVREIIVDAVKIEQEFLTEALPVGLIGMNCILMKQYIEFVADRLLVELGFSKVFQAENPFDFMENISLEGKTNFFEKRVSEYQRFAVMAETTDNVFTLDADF
UniProt O75695: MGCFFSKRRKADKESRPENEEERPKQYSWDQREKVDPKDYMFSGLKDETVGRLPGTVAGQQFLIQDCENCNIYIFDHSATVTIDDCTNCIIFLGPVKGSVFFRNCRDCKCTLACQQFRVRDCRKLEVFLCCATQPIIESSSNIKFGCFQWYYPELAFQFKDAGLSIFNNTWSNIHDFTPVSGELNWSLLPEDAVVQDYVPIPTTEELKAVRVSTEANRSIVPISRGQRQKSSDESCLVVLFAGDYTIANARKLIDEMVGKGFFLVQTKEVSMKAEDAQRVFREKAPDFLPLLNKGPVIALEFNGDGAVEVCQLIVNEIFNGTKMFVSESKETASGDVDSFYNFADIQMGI
UniProt O75818: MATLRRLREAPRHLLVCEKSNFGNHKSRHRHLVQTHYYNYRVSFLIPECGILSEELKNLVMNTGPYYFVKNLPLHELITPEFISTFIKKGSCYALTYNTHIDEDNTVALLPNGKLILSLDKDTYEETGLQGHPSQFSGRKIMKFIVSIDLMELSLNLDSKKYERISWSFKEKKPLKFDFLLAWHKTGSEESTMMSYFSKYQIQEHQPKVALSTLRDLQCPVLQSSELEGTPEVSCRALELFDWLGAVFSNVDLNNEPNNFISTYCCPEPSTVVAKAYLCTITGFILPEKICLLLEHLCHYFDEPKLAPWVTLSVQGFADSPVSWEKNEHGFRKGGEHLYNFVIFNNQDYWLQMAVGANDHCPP
UniProt Q96BH1: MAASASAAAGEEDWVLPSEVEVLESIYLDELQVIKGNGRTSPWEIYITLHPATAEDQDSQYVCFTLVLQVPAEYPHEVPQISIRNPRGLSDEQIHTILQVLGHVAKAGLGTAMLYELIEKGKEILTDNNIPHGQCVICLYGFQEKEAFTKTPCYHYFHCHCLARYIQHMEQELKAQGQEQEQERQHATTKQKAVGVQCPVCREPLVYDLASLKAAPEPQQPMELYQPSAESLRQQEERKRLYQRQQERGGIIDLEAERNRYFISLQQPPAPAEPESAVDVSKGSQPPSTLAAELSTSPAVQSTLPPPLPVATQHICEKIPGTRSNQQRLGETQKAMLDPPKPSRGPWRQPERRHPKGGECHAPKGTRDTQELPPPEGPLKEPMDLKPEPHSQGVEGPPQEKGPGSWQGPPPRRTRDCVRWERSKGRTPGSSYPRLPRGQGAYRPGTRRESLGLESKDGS
UniProt Q86WX3: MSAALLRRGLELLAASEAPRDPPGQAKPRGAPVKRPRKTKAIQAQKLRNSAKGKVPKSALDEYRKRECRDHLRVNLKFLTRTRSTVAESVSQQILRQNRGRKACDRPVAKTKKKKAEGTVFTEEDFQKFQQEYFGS
UniProt Q9P2E9: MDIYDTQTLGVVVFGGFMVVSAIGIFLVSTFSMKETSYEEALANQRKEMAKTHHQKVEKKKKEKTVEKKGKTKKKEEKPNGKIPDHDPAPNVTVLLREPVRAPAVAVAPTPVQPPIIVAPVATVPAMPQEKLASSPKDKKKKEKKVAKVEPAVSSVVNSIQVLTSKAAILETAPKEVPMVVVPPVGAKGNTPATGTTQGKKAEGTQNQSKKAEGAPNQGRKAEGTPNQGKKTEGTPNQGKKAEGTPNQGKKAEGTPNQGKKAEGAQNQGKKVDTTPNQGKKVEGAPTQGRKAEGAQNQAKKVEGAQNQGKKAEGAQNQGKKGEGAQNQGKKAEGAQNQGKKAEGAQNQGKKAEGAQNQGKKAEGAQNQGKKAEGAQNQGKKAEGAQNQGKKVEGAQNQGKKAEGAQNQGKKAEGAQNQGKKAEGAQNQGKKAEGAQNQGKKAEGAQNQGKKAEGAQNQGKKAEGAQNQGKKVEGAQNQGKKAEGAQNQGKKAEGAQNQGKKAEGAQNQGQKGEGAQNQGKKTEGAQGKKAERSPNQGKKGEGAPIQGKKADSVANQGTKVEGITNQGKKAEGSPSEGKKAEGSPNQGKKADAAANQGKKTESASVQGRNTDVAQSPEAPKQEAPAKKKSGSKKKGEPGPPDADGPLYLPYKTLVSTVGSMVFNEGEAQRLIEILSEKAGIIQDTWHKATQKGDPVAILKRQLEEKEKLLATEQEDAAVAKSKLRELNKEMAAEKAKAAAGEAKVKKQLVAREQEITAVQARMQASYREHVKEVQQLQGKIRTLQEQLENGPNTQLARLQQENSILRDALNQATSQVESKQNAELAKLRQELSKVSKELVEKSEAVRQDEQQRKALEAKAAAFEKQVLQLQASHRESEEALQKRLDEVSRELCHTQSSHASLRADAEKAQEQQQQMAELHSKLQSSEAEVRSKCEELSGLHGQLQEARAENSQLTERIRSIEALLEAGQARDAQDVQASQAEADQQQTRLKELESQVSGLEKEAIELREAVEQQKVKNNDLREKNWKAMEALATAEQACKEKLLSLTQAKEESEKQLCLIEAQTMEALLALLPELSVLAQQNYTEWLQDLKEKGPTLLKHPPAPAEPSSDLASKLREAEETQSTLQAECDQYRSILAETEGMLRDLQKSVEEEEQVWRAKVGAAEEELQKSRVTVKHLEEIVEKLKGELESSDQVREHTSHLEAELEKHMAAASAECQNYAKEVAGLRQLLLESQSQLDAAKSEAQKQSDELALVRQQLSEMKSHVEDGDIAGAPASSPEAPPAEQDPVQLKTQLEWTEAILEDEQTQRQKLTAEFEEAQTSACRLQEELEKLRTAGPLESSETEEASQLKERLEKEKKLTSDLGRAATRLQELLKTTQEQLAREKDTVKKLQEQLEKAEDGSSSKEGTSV

compound: Cc1cc(SCc2sc(-c3ccc(C(F)(F)F)cc3)nc2C)ccc1OCC(=O)O; experiment: log2 fold change, soluble protein after heating vs DMSO (PISA); higher = thermal stabilisation; K562 cells, 10 uM, 30 min; active = over 0.2 and 3.5 SD of the protein, either way, in both replicates (recomputed)
Method in brief: (§1)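 K562 cells at 2×10^6 cells/mL were exposed to 10 μM compound for 30 min, then aliquots were heated for 3 min across 48°C-58°C, pooled, and extracted in PBS containing 0.5% NP-40 at 4°C. The supernatant after 21,000xg for 90 min was taken as soluble protein and measured by TMTpro 16plex LC-MS/MS with channel sums equalised. Thermal stability is reported relative to control samples, with values from duplicates. Fold changes are given on a log2 scale.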

| Target | log2 fold change |
| --- | --- |
| RPS6 (UniProt P62753) | inactive: 0.076 |
| RRAS (UniProt P10301) | inactive: -0.012 |
| RPL7 (UniProt P18124) | inactive: 0.046 |
| RPL13A (UniProt P40429) | inactive: 0.041 |
| RPL26 (UniProt P61254) | inactive: 0.029 |
| RPS29 (UniProt P62273) | inactive: 0 |
| RNGTT (UniProt O60942) | inactive: 0.033 |
| RPAP3 (UniProt Q9H6T3) | inactive: 0.062 |
| RPL3L (UniProt Q92901) | inactive: 0.116 |

compound: Cc1ccc(-n2nc(C(C)(C)C)cc2NC(=O)Nc2ccc(OCCN3CCOCC3)c3ccccc23)cc1 [doramapimod]; experiment: as above
Method in brief: as §1

| Target | log2 fold change |
| --- | --- |
| RPL9 (UniProt P32969) | inactive: 0.225 |
| RNH1 (UniProt P13489) | inactive: -0.019 |
| RPL24 (UniProt P83731) | inactive: 0.168 |
| RPS17 (UniProt P08708) | inactive: 0.032 |
| RPL17 isoform 3 (UniProt P18621) | inactive: 0.277 |
| RPN1 (UniProt P04843) | inactive: -0.001 |
| RPP30 isoform 2 (UniProt P78346) | inactive: 0.006 |
| RPL15 (UniProt P61313) | inactive: 0.382 |
| RO60 (UniProt P10155) | inactive: -0.003 |
| RRM2B isoform 6 (UniProt Q7LG56) | inactive: 0.109 |
| RP2 (UniProt O75695) | inactive: -0.054 |
| RPP40 (UniProt O75818) | inactive: -0.006 |
| RPL36 (UniProt Q9Y3U8) | inactive: 0.273 |
| RPL11 (UniProt P62913) | inactive: 0.286 |
| RPL13 (UniProt P26373) | inactive: 0.345 |
| RNF25 (UniProt Q96BH1) | inactive: -0.006 |

| Target | log2 fold change |
| --- | --- |
| RPL8 (UniProt P62917) | inactive: 0.404 |
| RPS27 (UniProt P42677) | inactive: 0.074 |
| RPS19BP1 (UniProt Q86WX3) | inactive: 0.066 |
| RPL35 (UniProt P42766) | inactive: 0.242 |
| RPS10 (UniProt P46783) | inactive: 0.042 |
| RRBP1 (UniProt Q9P2E9) | inactive: 0.29 |
| RPL22 (UniProt P35268) | inactive: 0.177 |
| RPS6 (UniProt P62753) | inactive: 0.31 |
| RRAS (UniProt P10301) | inactive: -0.051 |
| RPL7 (UniProt P18124) | inactive: 0.391 |
| RPL13A (UniProt P40429) | inactive: 0.383 |
| RPL26 (UniProt P61254) | inactive: 0.263 |
| RPS29 (UniProt P62273) | inactive: -0.172 |
| RNGTT (UniProt O60942) | inactive: 0.052 |
| RPAP3 (UniProt Q9H6T3) | inactive: -0.038 |
| RPL3L (UniProt Q92901) | inactive: 0.393 |
